Reference: PubChem BioAssay AID485314 (National Center for Advancing Translational Sciences (NCATS), 2010)
About 4,500 (1.3%) of roughly 340,000 compounds were called active. Inconclusive means that the source gave no clear call. Such entries were picked first, then a sample of the others. The call rests on the fitted dose curve; in most records, active means well fitted inhibition curve with a large enough effect; inconclusive means small, poorly fitted or top-dose-only effect, or another doubt; inactive means no such curve, though single readings can be large or run the other way. Potencies beside an inconclusive call are fits to weak or partial responses and may not hold up.

The molecules below were run against DNA polymerase beta (Homo sapiens) (UniProt P06746) (assay: qHTS Assay for Inhibitors of DNA Polymerase Beta). Conditions: Pol beta primer extension/strand displacement, fluorescence kinetic; activity change, negative = inhibition: at 114 µM (top of the series).
In short: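 Reaction started by 50 nM substrate onto compound-treated Pol beta (10 nM, 15 min preincubation, room temperature); plates read at 0 min and 10 min. Normalized concentration-effect data fitted by four-parameter Hill equation.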
On the % scale 0 is the no-effect control and ±100 the full control effect; potency means the concentration at half of the fitted maximal effect.

SMILES | Potency | activity change, negative = inhibition
CCCCCCN1CC(O)=C(c2nc3ccccc3[nH]2)C1=N | inconclusive: 25.1 µM [inhibitor, full curve, poor fit] | –
CC(c1ccccc1)N1C(=O)c2ccc(C(=O)Nc3ccccc3C(=O)O)cc2C1=O (configuration not stated) | – | inactive: 2.92%
Cc1ccc(CNC(=O)CN2CCN(Cc3ccc(F)cc3)C2=O)cc1 | – | inactive: -3.76%
CCOC(=O)c1cnc(-n2[nH]c(C)cc2=O)[nH]c1=O | active: 3.16 µM | –
O=C(c1ccco1)N1CCN(C(c2ccccc2Cl)c2nnnn2Cc2cccs2)CC1 (configuration not stated) | inconclusive: 2 µM [inhibitor, full curve] | –
Cc1ccc(-n2nc3c(c2NC(=O)c2cc4ccccc4o2)CS(=O)(=O)C3)cc1 | – | inactive: -1.77%
O=C(Oc1csc(=S)n1C(=O)c1ccccc1)c1ccccc1 | – | inactive: 5.16%
COc1cc(/C=N/NC(=O)c2ccc(Cl)c(S(N)(=O)=O)c2)ccc1OCC(N)=O | inconclusive: 15.8 µM [inhibitor, full curve] | –
N#Cc1c(Cl)nc(N/N=C/c2ccccc2)c(Cl)c1Cl | active: 20 µM | –
CC1=C(C(=O)Nc2ccc(F)cc2F)C2(CCCCCC2)OC1=O | – | inactive: 3.05%
Cc1ccc(-c2csc3n[nH]c(=S)n23)cc1 | – | inactive: 28.1%
CC1=Nc2ccccc2N=C(NC(=O)CN2CCN(c3ccccc3)CC2)C1c1ccccc1 (configuration not stated) | inconclusive: 89.1 µM [inhibitor, single point] | –
CC(NC(=O)Nc1ccccc1C(F)(F)F)C1CCCO1 (configuration not stated) | inconclusive: 89.1 µM [inhibitor, single point] | –
CCOc1ccc(CCNC(=O)c2cnc3sc(N4CCCCCC4)nn3c2=O)cc1 | – | inactive: -8.91%
CCn1c(C)cc(/C=C2/SC(=S)NC2=O)c1C | – | inactive: 0.553%
COc1ccc(CN2CCSc3sccc3C2=O)cc1 | active: 79.4 µM | –
COc1ccc(-c2cc(C(F)(F)F)nc(SCC(=O)NCc3ccc(Cl)cc3)n2)cc1 | – | inactive: -3.98%
Cc1ccc(C)c(NC(=O)CCNS(=O)(=O)c2ccc3[nH]c(=O)oc3c2)c1 | active: 11.2 µM | –
O=C(N/N=C1\CCCc2oc(C(=O)O)cc21)c1ccccc1 | – | inactive: 9.05%
O=C1C([N+](=O)[O-])=C(O)c2cccc3cccc1c23 | active: 11.2 µM | –
O=C(Nc1ccc2oc(-c3cccc(Cl)c3Cl)nc2c1)c1cccc(Br)c1 | – | inconclusive: -81.6% [inhibitor]
COc1cn(CC(=O)Nc2cc(C)ccc2C)c(CN2CCCCC2)cc1=O | – | inactive: 0.893%
O=[N+]([O-])c1cc(-c2nc(-c3ccncc3)no2)ccc1NCc1ccccc1 | inconclusive: 79.4 µM [inhibitor, single point] | –
O=C(O)c1cccc(N/N=C/c2cc(Br)cc(Br)c2O)c1 | inconclusive: 70.8 µM [inhibitor, partial curve, poor fit] | –

By substructure, those above containing a halogen
SMILES | Potency | activity change, negative = inhibition
Cc1ccc(CNC(=O)CN2CCN(Cc3ccc(F)cc3)C2=O)cc1 | – | inactive: -3.76%
O=C(c1ccco1)N1CCN(C(c2ccccc2Cl)c2nnnn2Cc2cccs2)CC1 (configuration not stated) | inconclusive: 2 µM [inhibitor, full curve] | –
COc1cc(/C=N/NC(=O)c2ccc(Cl)c(S(N)(=O)=O)c2)ccc1OCC(N)=O | inconclusive: 15.8 µM [inhibitor, full curve] | –
N#Cc1c(Cl)nc(N/N=C/c2ccccc2)c(Cl)c1Cl | active: 20 µM | –
CC1=C(C(=O)Nc2ccc(F)cc2F)C2(CCCCCC2)OC1=O | – | inactive: 3.05%
CC(NC(=O)Nc1ccccc1C(F)(F)F)C1CCCO1 (configuration not stated) | inconclusive: 89.1 µM [inhibitor, single point] | –
COc1ccc(-c2cc(C(F)(F)F)nc(SCC(=O)NCc3ccc(Cl)cc3)n2)cc1 | – | inactive: -3.98%
O=C(Nc1ccc2oc(-c3cccc(Cl)c3Cl)nc2c1)c1cccc(Br)c1 | – | inconclusive: -81.6% [inhibitor]
O=C(O)c1cccc(N/N=C/c2cc(Br)cc(Br)c2O)c1 | inconclusive: 70.8 µM [inhibitor, partial curve, poor fit] | –

Next part:

SMILES | Potency | activity change, negative = inhibition
CCOc1cc(CNCCSc2nnnn2-c2ccccc2)ccc1OC | – | inactive: 14.8%
O=C(N/C(=C/c1ccc(Br)cc1)C(=O)N1CCOCC1)c1ccco1 | inconclusive: 39.8 µM [inhibitor, single point] | –
C#CCn1cc(/C=C2\NC(=O)NC2=O)c2ccccc21 | active: 35.5 µM | –
COc1cccc(CNC(=O)c2nnn(CC(=O)Nc3ccc(C)c(C)c3)c2N)c1 | active: 25.1 µM | –
CCOc1ccc(C(=O)c2cn(CC(=O)Nc3cc(OC)ccc3OC)c3cc(OC)c(OC)cc3c2=O)cc1 | inconclusive: 39.8 µM [inhibitor, partial curve, poor fit] | –
Cc1cc(-c2ccc(C(C)C)c(S(=O)(=O)NCc3ccco3)c2)on1 | – | inconclusive: -41.2% [inhibitor]
O=C(O)c1cccc(NC(=S)N/N=C/c2cccc(O)c2)c1 | – | inactive: 1.87%
O=[N+]([O-])c1cccc(-c2ccc(/C=N/NC(=S)Nc3ccccc3)o2)c1 | – | inactive: 11.3%
COc1cc2cc(C(=O)N/N=C/c3ccc(F)cc3)[nH]c2cc1OC | inconclusive: 11.2 µM [inhibitor, full curve] | –
COc1cccc(CNC(=O)C2CCN(S(=O)(=O)c3cccc4cccnc34)CC2)c1 | inconclusive: 89.1 µM [inhibitor, single point] | –
CC1Cc2ccccc2N1C(=O)COC(=O)CCc1nc2ccccc2c(=O)[nH]1 (configuration not stated) | inconclusive: 25.1 µM [inhibitor, full curve, poor fit] | –
FC(F)(F)c1cnc(N2CCSCC2)c(Cl)c1 | inconclusive: 89.1 µM [inhibitor, single point] | –
O=C(CCC(=O)N(CC(=O)NC1CCCC1)Cc1cccs1)Nc1nccs1 | inconclusive: 100 µM [inhibitor, single point] | –
O=C(Cc1ccc(Cl)c(Cl)c1)Nc1ccc2[nH]c(=O)[nH]c2c1 | inconclusive: 0.141 µM [inhibitor, full curve, poor fit] | –
CSCC[C@H](NC(=O)OC(C)(C)C)C(=O)N1CCC(C(=O)N[C@@H](C)C(=O)NCc2ccc(F)cc2)CC1 | inconclusive: 89.1 µM [inhibitor, single point] | –
O=[N+]([O-])c1cccc(-c2ccc3nnc(SCc4ccccn4)n3n2)c1 | inconclusive: 1.26 µM [inhibitor, full curve, poor fit] | –
N#CC(c1ccccc1)N(CCCCl)C(=O)c1ccccc1 (configuration not stated) | inconclusive: 89.1 µM [inhibitor, single point] | –
O=C(Nc1ccc(N2CCN(C(=O)c3ccccc3)CC2)c(Cl)c1)c1ccco1 | inconclusive: 70.8 µM [inhibitor, single point] | –
COc1ccc(Cn2c(O)c(/C=N/NC(=O)c3cccnc3)c3ccccc3c2=O)cc1 | inconclusive: 79.4 µM [inhibitor, single point] | –
O=C(CN(Cc1ccco1)S(=O)(=O)c1ccccc1)N/N=C/c1cccc(O)c1 | inconclusive: 0.708 µM [inhibitor, full curve] | –
Cc1ccc(/C=C2/C(=O)c3ccc(C(=O)O)cc3C2=O)o1 | active: 25.1 µM | –
COc1ccc(/C=N/NC(=O)c2ccc(COCC(F)(F)C(F)F)cc2)cc1 | inconclusive: 63.1 µM [inhibitor, partial curve, poor fit] | –
CCN(CC)c1ccc(/C=N/NC(=O)CC(C)C)cc1 | inconclusive: 79.4 µM [inhibitor, single point] | –
